No constants are given. Whether binding was seen depends on the method and setting. Binding seen in cells or lysates may run through a third protein. A result given as binding can be weak or reduced; the word gives no strength.
Target: casein kinase 1a (CK1a) (Neurospora crassa (endogenous in Neurospora))
Test: co-IP; immunoprecipitation with an antibody against CK1a from strain extracts, 25 °C; preimmune serum as control

B1: small FRQ (s-FRQ), FREQUENCY protein isoform lacking the N-terminal 99 aa (protein, UniProt P19970 100-989)
chain: MEVDPPFYQKETDSSNEESRYPPGRNPVHPPGGVQLPGFRPVAAHSSAADDYRSVIDDLTVENKRLKEELKRYKQFGSDVMRKEKLFEIKVHGLPRRKKRELEATLRDFAASLGDSSESTSQRRKTGRHGTAVHSSGVSLSKHDSSSSSRSRPVDSAYNSMSTGRSSHAPHSSGPSLGRPSLTRAKSVGTQKVENYLRDTPDGLLPHHIVMTDKEKKKLVVRRLEQLFTGKISGRNMQRNQSMPSMDAPLAPEGTNMAPPRPPPEGLREACIQLQDGDNPRKNRSSKDNGSASNSGGDQTELGGTGTGSGDGSGSGGRTGNNTSPPGAIAPDQRPTRPRDLDPDRVQIPSENMDYIRHLGLVSPEFLQGSRTSYQDVAPDAEGWVYLNLLCNLAQLHMVNVTPSFIRQAVSEKSTKFQLSADGRKIRWRGGTDGTKFSSDSSEDKSQQSPMTEDTEDGSDKNGRRKKRKTQQASSEIGRFGPSRSPSDTFHYKPMFVHRNSSSIETSLEESMSQGSEDAVDESNMGNSKWDFSGSGTTQQRRKRRYDGAIVYYTGAPFCTDLSGDPGDMSPTAQMTAGREVEGSGSGDEVEHVLQRTLSGSSLPIRPLSDDRARVAEVLDFDPGNPPELVADDGSSPNDEDFVFPWCEDPAKVRIQPIAKEVMEPSGLGGVLPDDHFVMLVTTRRVVRPILQRQLSRSTTSEDTAEFIAERLAAIRTSSPLPPRSHRLTVAPLQVEYVSGQFRRLNPAPLPPPAIFYPPFSTDSSWDDGDDLASDDEEVEEVEEDSYSEGQISRRANPHFSDNNTYMRKDDLAFDTETDVRMDSDDNRLSDSGHNMRAMMPRAEAVDGDDSPLAAVTGKEVDMLHTGSSVATAGGAESGYSSSMEDVSSS
binding: binds

Source: paper PMC10140173
